PubChem BioAssay AID1053208 | Peter MacCallum Cancer Centre | 2014
This is a random part of about 17,000 reagents tested. In the full data, 788 (4.7%) are marked active. 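Calls rest on z-score classes alone; an extra cut-off of viability at most 70% of control was not applied to them.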 Further read-outs or replicates are left out here. No sequences are given here.

Purpose: 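Synthetic lethal interactions between gene loss and doxorubicin in osteosarcoma cells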 (primary screen)
System: mouse osteosarcoma cells, early-passage culture from an engineered mouse model of fibroblastic bone tumour
Reagent: siRNA pool against mouse genes, 40 nM
Time to read-out: about 120 h (48 h before drug, then 72 h with drug)
Challenge: doxorubicin 100 nM for 72 h, roughly 30-40% inhibitory dose
Measurement: 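Viability read as ATP luminescence after 72 h of 100 nM doxorubicin or none, duplicate wells averaged, scaled to non-targeting siRNA, then expressed as robust z-scores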
Scale: viability z-score with doxorubicin: higher = more viable cells under doxorubicin; viability z-score without drug: higher = more viable cells with knock-down alone
Call rule: 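a pool counts as active when its viability z-score with doxorubicin is -2 or below and its z-score without drug lies between -2 and 2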

{"target": "Or8u8 (GeneID 18352)", "combined z-score class": "no change with or without drug", "viability z-score with doxorubicin": -0.22, "viability z-score without drug": 0, "call": "inactive"}
{"target": "Rd3 (GeneID 74023)", "combined z-score class": "no change with or without drug", "viability z-score with doxorubicin": 0.67, "viability z-score without drug": 0.17, "call": "inactive"}
{"target": "Nek11 (GeneID 208583)", "combined z-score class": "no change with or without drug", "viability z-score with doxorubicin": -0.56, "viability z-score without drug": -0.51, "call": "inactive"}
{"target": "Cpne9 (GeneID 211232)", "combined z-score class": "no change with or without drug", "viability z-score with doxorubicin": -0.11, "viability z-score without drug": -0.51, "call": "inactive"}
{"target": "Tbc1d24 (GeneID 224617)", "combined z-score class": "no change with or without drug", "viability z-score with doxorubicin": 0.34, "viability z-score without drug": 0.84, "call": "inactive"}
{"target": "Lyzl1 (GeneID 67328)", "combined z-score class": "no change with or without drug", "viability z-score with doxorubicin": 1.35, "viability z-score without drug": 0.84, "call": "inactive"}
{"target": "1700020L24Rik (GeneID 66330)", "combined z-score class": "no change with or without drug", "viability z-score with doxorubicin": 1.8, "viability z-score without drug": 1.85, "call": "inactive"}
{"target": "Uqcc2 (GeneID 67267)", "combined z-score class": "no change with or without drug", "viability z-score with doxorubicin": -0.22, "viability z-score without drug": 0, "call": "inactive"}
{"target": "Yy1 (GeneID 22632)", "combined z-score class": "low cell count with doxorubicin only", "viability z-score with doxorubicin": -2.47, "viability z-score without drug": -1.69, "call": "active"}
{"target": "Or2j3 (GeneID 258481)", "combined z-score class": "no change with or without drug", "viability z-score with doxorubicin": -1.35, "viability z-score without drug": -0.51, "call": "inactive"}
{"target": "Timm23 (GeneID 53600)", "combined z-score class": "low cell count with doxorubicin only", "viability z-score with doxorubicin": -2.92, "viability z-score without drug": -1.85, "call": "active"}
{"target": "Pcsk7 (GeneID 18554)", "combined z-score class": "no change with or without drug", "viability z-score with doxorubicin": -0.22, "viability z-score without drug": 0.51, "call": "inactive"}
{"target": "Myo1e (GeneID 71602)", "combined z-score class": "no change with or without drug", "viability z-score with doxorubicin": 0.67, "viability z-score without drug": 1.35, "call": "inactive"}
{"target": "Cldn12 (GeneID 64945)", "combined z-score class": "no change with or without drug", "viability z-score with doxorubicin": 1.8, "viability z-score without drug": 1.18, "call": "inactive"}
{"target": "Spata1 (GeneID 70951)", "combined z-score class": "no change with or without drug", "viability z-score with doxorubicin": 1.12, "viability z-score without drug": 0.51, "call": "inactive"}
{"target": "Ppp2r5a (GeneID 226849)", "combined z-score class": "no change with or without drug", "viability z-score with doxorubicin": 0.45, "viability z-score without drug": 0.84, "call": "inactive"}
{"target": "Or51g1 (GeneID 259119)", "combined z-score class": "no change with or without drug", "viability z-score with doxorubicin": -0.45, "viability z-score without drug": -1.52, "call": "inactive"}
{"target": "Lrrc9 (GeneID 78257)", "combined z-score class": "no change with or without drug", "viability z-score with doxorubicin": -1.01, "viability z-score without drug": 0.17, "call": "inactive"}
{"target": "Slc39a14 (GeneID 213053)", "combined z-score class": "no change with or without drug", "viability z-score with doxorubicin": 0.9, "viability z-score without drug": 0.34, "call": "inactive"}

2 neighbouring entries already listed:
{"target": "Or8u8 (GeneID 18352)", "combined z-score class": "no change with or without drug", "viability z-score with doxorubicin": -0.22, "viability z-score without drug": 0, "call": "inactive"}
{"target": "Rd3 (GeneID 74023)", "combined z-score class": "no change with or without drug", "viability z-score with doxorubicin": 0.67, "viability z-score without drug": 0.17, "call": "inactive"}
